According to doi:10.1101/2023.02.07.527456:
These are yes or no findings as the source states them, for the method shown. Binding seen in cells or lysates may run through a third protein. Some entries that bind do so weakly or less than the wild type.

Protein sequences, listed by entry. Tags and fused reporters are not part of them.
UniProt P47806: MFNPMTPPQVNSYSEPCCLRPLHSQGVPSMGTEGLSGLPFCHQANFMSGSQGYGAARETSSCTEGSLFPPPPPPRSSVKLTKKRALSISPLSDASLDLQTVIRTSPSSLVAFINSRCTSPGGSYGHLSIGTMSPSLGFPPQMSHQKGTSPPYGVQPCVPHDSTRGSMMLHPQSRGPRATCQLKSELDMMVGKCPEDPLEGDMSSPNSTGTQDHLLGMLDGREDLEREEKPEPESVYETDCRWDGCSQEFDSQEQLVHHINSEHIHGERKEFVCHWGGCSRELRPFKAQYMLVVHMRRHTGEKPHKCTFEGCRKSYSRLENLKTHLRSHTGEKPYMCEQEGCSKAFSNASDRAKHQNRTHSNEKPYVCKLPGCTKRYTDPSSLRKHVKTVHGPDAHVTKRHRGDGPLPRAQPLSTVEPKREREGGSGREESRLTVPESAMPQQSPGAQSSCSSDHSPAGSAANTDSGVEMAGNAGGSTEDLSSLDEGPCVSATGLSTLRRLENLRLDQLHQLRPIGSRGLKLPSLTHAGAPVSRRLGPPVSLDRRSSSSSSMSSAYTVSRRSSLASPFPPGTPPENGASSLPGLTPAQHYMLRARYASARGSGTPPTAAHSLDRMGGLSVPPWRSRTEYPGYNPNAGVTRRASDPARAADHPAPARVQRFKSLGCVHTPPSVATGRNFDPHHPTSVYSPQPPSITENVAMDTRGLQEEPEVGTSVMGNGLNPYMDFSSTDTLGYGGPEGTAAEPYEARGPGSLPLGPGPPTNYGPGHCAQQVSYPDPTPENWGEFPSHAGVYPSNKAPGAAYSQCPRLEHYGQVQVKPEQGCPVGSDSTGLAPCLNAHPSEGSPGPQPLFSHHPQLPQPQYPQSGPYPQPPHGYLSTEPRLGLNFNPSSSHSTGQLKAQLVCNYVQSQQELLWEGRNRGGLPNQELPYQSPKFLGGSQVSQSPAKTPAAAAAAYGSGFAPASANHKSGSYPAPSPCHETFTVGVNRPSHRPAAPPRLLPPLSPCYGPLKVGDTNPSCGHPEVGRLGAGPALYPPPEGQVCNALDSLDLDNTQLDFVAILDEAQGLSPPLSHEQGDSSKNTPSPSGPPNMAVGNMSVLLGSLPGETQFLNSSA
UniProt P13864: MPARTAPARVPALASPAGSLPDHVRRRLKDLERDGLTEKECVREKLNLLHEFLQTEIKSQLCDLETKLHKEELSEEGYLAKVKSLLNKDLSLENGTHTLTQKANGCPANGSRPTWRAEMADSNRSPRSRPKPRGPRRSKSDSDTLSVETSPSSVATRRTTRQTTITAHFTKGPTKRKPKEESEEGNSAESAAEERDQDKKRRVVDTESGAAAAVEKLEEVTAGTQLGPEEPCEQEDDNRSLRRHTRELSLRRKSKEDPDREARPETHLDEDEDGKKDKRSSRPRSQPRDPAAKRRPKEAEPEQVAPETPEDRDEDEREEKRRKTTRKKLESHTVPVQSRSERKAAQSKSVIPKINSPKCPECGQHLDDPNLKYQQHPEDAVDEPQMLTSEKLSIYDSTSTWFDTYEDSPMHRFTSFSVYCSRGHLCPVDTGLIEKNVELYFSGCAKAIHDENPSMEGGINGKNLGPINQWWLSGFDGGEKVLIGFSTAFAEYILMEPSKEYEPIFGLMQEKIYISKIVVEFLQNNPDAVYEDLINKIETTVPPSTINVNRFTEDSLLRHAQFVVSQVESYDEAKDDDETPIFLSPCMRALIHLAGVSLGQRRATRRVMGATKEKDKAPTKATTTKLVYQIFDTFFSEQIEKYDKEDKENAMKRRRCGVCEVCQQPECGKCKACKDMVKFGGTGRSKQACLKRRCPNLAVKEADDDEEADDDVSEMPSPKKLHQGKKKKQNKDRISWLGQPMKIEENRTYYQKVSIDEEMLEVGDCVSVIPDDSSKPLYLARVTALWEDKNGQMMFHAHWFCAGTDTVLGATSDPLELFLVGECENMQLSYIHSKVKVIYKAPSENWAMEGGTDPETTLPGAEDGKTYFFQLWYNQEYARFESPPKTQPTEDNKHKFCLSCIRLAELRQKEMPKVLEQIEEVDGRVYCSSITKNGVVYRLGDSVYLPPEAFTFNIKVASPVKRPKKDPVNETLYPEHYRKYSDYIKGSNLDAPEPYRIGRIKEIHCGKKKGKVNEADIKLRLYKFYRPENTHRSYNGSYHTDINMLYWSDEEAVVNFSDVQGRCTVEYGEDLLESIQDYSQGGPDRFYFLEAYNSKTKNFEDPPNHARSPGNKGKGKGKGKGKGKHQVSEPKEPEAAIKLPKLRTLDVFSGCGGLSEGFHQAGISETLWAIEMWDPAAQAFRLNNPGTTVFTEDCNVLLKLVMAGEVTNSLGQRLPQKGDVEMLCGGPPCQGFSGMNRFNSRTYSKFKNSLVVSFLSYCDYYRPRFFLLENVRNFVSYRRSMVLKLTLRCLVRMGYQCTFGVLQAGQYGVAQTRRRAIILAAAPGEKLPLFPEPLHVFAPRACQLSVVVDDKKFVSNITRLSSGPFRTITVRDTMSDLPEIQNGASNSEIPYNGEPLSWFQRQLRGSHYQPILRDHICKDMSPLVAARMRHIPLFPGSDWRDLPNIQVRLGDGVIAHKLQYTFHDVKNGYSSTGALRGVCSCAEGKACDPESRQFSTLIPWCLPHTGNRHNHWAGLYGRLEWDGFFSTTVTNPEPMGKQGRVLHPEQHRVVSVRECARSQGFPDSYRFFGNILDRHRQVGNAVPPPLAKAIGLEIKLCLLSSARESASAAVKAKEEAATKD

Biological target: Glioma-associated oncogene homolog 1 (mouse (endogenous in murine BMMs or RAW264.7 cells)) (UniProt P47806)
Experiment: co-IP

binding: binds
Substance: DNA methyltransferase 1 (from UniProt P13864 1-1620) (enzyme)
